Results: patent publication US10722484B2, “Methods of cancer treatment” (K-Gen, Inc., priority 2016, dated 2020)

System: A549 lung cancer cell line
Assay: Combination viability/proliferation assays (384-well IC50 ratio, 96-well MacSynergy II)
Type: cell-based
Experimental: A 96-well MacSynergy II format for combination test was also used. […] The analysis was done with the SQRT(Data) scale and the four parameter Hill curve was fitted using XLfit5.1 (the MacSynergy II Excel Spreadsheet) for the inhibition data. Synergy (positive number) or Antagonism (negative number) volumes were calculated. […] Three-dimensional MacSynergy II graphs were generated where positive values indicated synergism and negative values indicated antagonism.

`O=C(CCCCCCC(=O)Nc1ccccc1)NO` [SAHA, suberoylanilide hydroxamic acid] was tested, and the “effect in combination with K101A or K102 in inhibiting the growth of A549 cells” value was “minor but significant antagonistic effect”.
